From paper PMC10380613 come the findings set out here.

These are yes or no findings as the source states them, for the method shown.

Common to all, as to assay: two-hybrid; GAL4 system (Matchmaker, Clontech); baits in pGBT9 (Gal4 BD), preys in pGAD424 (Gal4 AD); S. cerevisiae AH109; HIS3 reporter, growth on SD/-His/-Leu/-Trp with 20 mM 3-AT, 30 °C; triplicate; each protein as bait and as prey
Assay [1] addresses T1, MOY male-determining protein of Ceratitis capitata (Ceratitis capitata).
T1 sequence: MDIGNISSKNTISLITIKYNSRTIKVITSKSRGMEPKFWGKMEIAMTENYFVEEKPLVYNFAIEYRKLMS

Assay [2] concerns the target Ceratitis capitata Transformer (CcTRA) (Ceratitis capitata).
Assay [3] deals with Ceratitis capitata Transformer 2 (CcTRA2) (Ceratitis capitata).

“Ceratitis capitata Transformer 2 (CcTRA2)”: the binding entry in assay [1] was “no binding”.

Consider Ceratitis capitata Transformer (CcTRA), for which the binding result in assay [1] is “no binding”.

B1: MOY male-determining protein of Ceratitis capitata (protein, UniProt A0A5B8HDM7 1-70)
chain: T1 sequence
Regarding B1, the binding entry in assay [2] and in assay [3] was “no binding” throughout.
